According to article PMC7994844:
These are yes or no findings as the source states them, for the method shown. In cells and extracts the contact can be indirect. Some results given as binding are weak or reduced against the parent protein; the word gives no strength. For part of these data: Tags and fused reporters may be left off the sequences shown.

Chains of the proteins cited; added tags and fusions are not shown. Residues count along the entry.
UniProt O00584, residues 25-256: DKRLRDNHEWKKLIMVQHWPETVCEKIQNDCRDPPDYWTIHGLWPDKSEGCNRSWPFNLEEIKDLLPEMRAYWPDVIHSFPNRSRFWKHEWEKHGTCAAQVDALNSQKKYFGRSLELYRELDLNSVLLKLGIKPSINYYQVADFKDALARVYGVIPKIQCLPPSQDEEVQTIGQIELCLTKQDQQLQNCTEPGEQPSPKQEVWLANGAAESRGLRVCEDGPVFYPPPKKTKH
UniProt P63208: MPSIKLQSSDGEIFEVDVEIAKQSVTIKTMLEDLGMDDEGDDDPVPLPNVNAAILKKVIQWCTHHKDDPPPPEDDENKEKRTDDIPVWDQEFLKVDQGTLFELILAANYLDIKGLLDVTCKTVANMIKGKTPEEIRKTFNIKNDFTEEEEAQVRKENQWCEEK

Tests used:
[1] = target: T1, Flag-FBXO6 (human) (UniProt Q9NRD1); assay: co-IP; 293T cells co-transfected with Flag-FBXO6 and HA-RNASET2 for 36 h; lysate immunoprecipitated with anti-Flag M2 resin; western blot
T1 sequence: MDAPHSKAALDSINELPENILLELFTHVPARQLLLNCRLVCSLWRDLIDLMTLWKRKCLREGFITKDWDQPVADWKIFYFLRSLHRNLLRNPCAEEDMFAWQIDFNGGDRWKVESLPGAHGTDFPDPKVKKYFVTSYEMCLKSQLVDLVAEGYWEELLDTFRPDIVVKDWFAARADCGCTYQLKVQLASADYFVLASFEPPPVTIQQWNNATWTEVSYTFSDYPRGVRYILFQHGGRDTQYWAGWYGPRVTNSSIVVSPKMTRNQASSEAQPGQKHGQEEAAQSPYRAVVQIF

[2] = target: T1, Flag-FBXO6 (human); assay: co-IP; 293T cells transfected with FLAG-tagged F-box proteins or FBXO6 deletion constructs for 36 h; anti-Flag M2 resin, eluted with 3x Flag peptides; immunoblot
[3] = target: T1, Flag-FBXO6 (human); assay: co-IP; OVCAR-3 cells transfected with Flag-FBXO6 WT or Mut for 36 h; anti-Flag M2 resin, eluted with 3x Flag peptides; immunoblot of endogenous RNASET2
[4] = target: T2, endogenous FBXO6 (human (endogenous in A2780 and OVCAR-3)) (UniProt Q9NRD1); assay: co-IP; endogenous; A2780 cells treated with MG132 for 4 h; lysate immunoprecipitated with anti-FBXO6 antibody, nonspecific IgG as control; immunoblot
T2 sequence: T1 sequence

[5] = target: T3, Flag-tagged FBXO6 deletion construct: C-terminal FBA domain (human) (UniProt Q9NRD1); assay: co-IP; 293T cells transfected with FLAG-tagged F-box proteins or FBXO6 deletion constructs for 36 h; anti-Flag M2 resin, eluted with 3x Flag peptides; immunoblot
T3 sequence: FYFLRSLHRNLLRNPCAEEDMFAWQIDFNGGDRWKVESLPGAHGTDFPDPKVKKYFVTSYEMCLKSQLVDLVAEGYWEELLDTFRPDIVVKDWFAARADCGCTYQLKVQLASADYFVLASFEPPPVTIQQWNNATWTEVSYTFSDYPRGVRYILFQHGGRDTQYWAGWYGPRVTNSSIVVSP

Row | Substance | binding [1] | binding [2] | binding [3] | binding [4] | binding [5]
1 | HA-RNASET2 (from UniProt O00584 25-256) | binds | – | – | – | –
2 | SKP1 (from UniProt P63208 1-163) | – | binds | – | – | –
3 | endogenous RNASET2 (from UniProt O00584 25-256) | – | binds | binds | binds | binds
